{"source": "PubChem BioAssay AID1053208 (Peter MacCallum Cancer Centre, 2014)", "screen": "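Find knock-downs that sensitise mouse osteosarcoma cells to doxorubicin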 (primary screen)", "cell system": "mouse osteosarcoma cells, early-passage culture from an engineered mouse model of fibroblastic bone tumour", "reagents": "siRNA pool against mouse genes, 40 nM", "timing": "about 120 h (48 h before drug, then 72 h with drug)", "challenge": "doxorubicin 100 nM for 72 h, roughly 30-40% inhibitory dose", "measured": "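Viability read as ATP luminescence after 72 h of 100 nM doxorubicin or none, duplicate wells averaged, scaled to non-targeting siRNA, then expressed as robust z-scores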", "scale": "viability z-score with doxorubicin: higher = more viable cells under doxorubicin; viability z-score without drug: higher = more viable cells with knock-down alone", "call rule": "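Called active if knock-down leaves viability unchanged without drug (z within -2 to 2) but lowers it with doxorubicin (z at or under -2)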", "note": "The deposit covers about 17,000 reagents; this is a part drawn at random. In the full data, 788 (4.7%) are marked active. 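Calls rest on z-score classes alone; an extra cut-off of viability at most 70% of control was not applied to them.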 Not all columns of the deposit are shown."}
{"gene knocked down": "Drc5 (dynein regulatory complex subunit 5)", "PubChem SID": "SID152304830", "combined z-score class": "high cell count with doxorubicin only", "viability z-score with doxorubicin": 2.02, "viability z-score without drug": -0.34, "Outcome": "inactive"}
{"gene knocked down": "Rbks (ribokinase)", "PubChem SID": "SID152336467", "combined z-score class": "no change with or without drug", "viability z-score with doxorubicin": 1.8, "viability z-score without drug": 0.67, "Outcome": "inactive"}
{"gene knocked down": "Or13f5 (olfactory receptor family 13 subfamily F member 5)", "PubChem SID": "SID152319067", "combined z-score class": "no change with or without drug", "viability z-score with doxorubicin": 0, "viability z-score without drug": -1.35, "Outcome": "inactive"}
{"gene knocked down": "Phf12 (PHD finger protein 12)", "PubChem SID": "SID152291435", "combined z-score class": "no change with or without drug", "viability z-score with doxorubicin": -0.9, "viability z-score without drug": 0, "Outcome": "inactive"}
{"gene knocked down": "Clec5a (C-type lectin domain family 5, member a)", "PubChem SID": "SID152263162", "combined z-score class": "no change with or without drug", "viability z-score with doxorubicin": -0.9, "viability z-score without drug": -0.51, "Outcome": "inactive"}
{"gene knocked down": "Mmp17 (matrix metallopeptidase 17)", "PubChem SID": "SID152263984", "combined z-score class": "no change with or without drug", "viability z-score with doxorubicin": -0.11, "viability z-score without drug": -0.17, "Outcome": "inactive"}
{"gene knocked down": "Or10a48 (olfactory receptor family 10 subfamily A member 48)", "PubChem SID": "SID152282813", "combined z-score class": "no change with or without drug", "viability z-score with doxorubicin": -0.67, "viability z-score without drug": 0.67, "Outcome": "inactive"}
{"gene knocked down": "Pacsin3 (protein kinase C and casein kinase substrate in neurons 3)", "PubChem SID": "SID152308703", "combined z-score class": "no change with or without drug", "viability z-score with doxorubicin": 1.35, "viability z-score without drug": -0.51, "Outcome": "inactive"}
{"gene knocked down": "Rp2 (retinitis pigmentosa 2 homolog)", "PubChem SID": "SID152322439", "combined z-score class": "no change with or without drug", "viability z-score with doxorubicin": 1.57, "viability z-score without drug": 1.18, "Outcome": "inactive"}
{"gene knocked down": "Pphln1 (periphilin 1)", "PubChem SID": "SID152334309", "combined z-score class": "low cell count with doxorubicin only", "viability z-score with doxorubicin": -2.36, "viability z-score without drug": 0.34, "Outcome": "active"}
{"gene knocked down": "Cst7 (cystatin F (leukocystatin))", "PubChem SID": "SID152341285", "combined z-score class": "no change with or without drug", "viability z-score with doxorubicin": 1.57, "viability z-score without drug": 0.51, "Outcome": "inactive"}
{"gene knocked down": "Nfkbid", "PubChem SID": "SID152309860", "combined z-score class": "no change with or without drug", "viability z-score with doxorubicin": -0.9, "viability z-score without drug": -0.84, "Outcome": "inactive"}
{"gene knocked down": "Pramel12 (PRAME like 12)", "PubChem SID": "SID152305576", "combined z-score class": "no change with or without drug", "viability z-score with doxorubicin": 1.35, "viability z-score without drug": 0.34, "Outcome": "inactive"}
{"gene knocked down": "Nasp (nuclear autoantigenic sperm protein (histone-binding))", "PubChem SID": "SID152324794", "combined z-score class": "no change with or without drug", "viability z-score with doxorubicin": 0.45, "viability z-score without drug": 0.67, "Outcome": "inactive"}
{"gene knocked down": "Arl8a (ADP-ribosylation factor-like 8A)", "PubChem SID": "SID152308363", "combined z-score class": "no change with or without drug", "viability z-score with doxorubicin": -1.12, "viability z-score without drug": -0.51, "Outcome": "inactive"}
{"gene knocked down": "Prkaca (protein kinase, cAMP dependent, catalytic, alpha)", "PubChem SID": "SID152311067", "combined z-score class": "no change with or without drug", "viability z-score with doxorubicin": 0.22, "viability z-score without drug": 1.35, "Outcome": "inactive"}
{"gene knocked down": "Cnmd (chondromodulin)", "PubChem SID": "SID152298208", "combined z-score class": "no change with or without drug", "viability z-score with doxorubicin": 0.79, "viability z-score without drug": 0.17, "Outcome": "inactive"}
{"gene knocked down": "Slc39a6", "PubChem SID": "SID152333122", "combined z-score class": "no change with or without drug", "viability z-score with doxorubicin": 0.22, "viability z-score without drug": -0.17, "Outcome": "inactive"}
{"gene knocked down": "Or10a3m (olfactory receptor family 10 subfamily A member 3M)", "PubChem SID": "SID152320534", "combined z-score class": "no change with or without drug", "viability z-score with doxorubicin": -0.9, "viability z-score without drug": -0.17, "Outcome": "inactive"}
{"gene knocked down": "Pla2g4a (phospholipase A2, group IVA (cytosolic, calcium-dependent))", "PubChem SID": "SID152337586", "combined z-score class": "no change with or without drug", "viability z-score with doxorubicin": 0.67, "viability z-score without drug": 1.35, "Outcome": "inactive"}
{"gene knocked down": "P2ry2 (purinergic receptor P2Y, G-protein coupled 2)", "PubChem SID": "SID152264547", "combined z-score class": "no change with or without drug", "viability z-score with doxorubicin": 1.8, "viability z-score without drug": 0.51, "Outcome": "inactive"}
{"gene knocked down": "Fxr2 (FMR1 autosomal homolog 2)", "PubChem SID": "SID152265725", "combined z-score class": "no change with or without drug", "viability z-score with doxorubicin": 0.22, "viability z-score without drug": -0.17, "Outcome": "inactive"}
{"gene knocked down": "Mcm2 (minichromosome maintenance complex component 2)", "PubChem SID": "SID152287307", "combined z-score class": "no change with or without drug", "viability z-score with doxorubicin": 0.9, "viability z-score without drug": -0.84, "Outcome": "inactive"}
{"gene knocked down": "Ppp2r3c (protein phosphatase 2, regulatory subunit B'', gamma)", "PubChem SID": "SID152294407", "combined z-score class": "no change with or without drug", "viability z-score with doxorubicin": -1.01, "viability z-score without drug": 0.84, "Outcome": "inactive"}
{"gene knocked down": "Klf5 (Kruppel-like transcription factor 5)", "PubChem SID": "SID152307996", "combined z-score class": "no change with or without drug", "viability z-score with doxorubicin": -0.45, "viability z-score without drug": 0.84, "Outcome": "inactive"}
{"gene knocked down": "Pgm2 (phosphoglucomutase 2)", "PubChem SID": "SID152302104", "combined z-score class": "no change with or without drug", "viability z-score with doxorubicin": -1.35, "viability z-score without drug": -0.34, "Outcome": "inactive"}
{"gene knocked down": "Derl1 (Der1-like domain family, member 1)", "PubChem SID": "SID152259808", "combined z-score class": "no change with or without drug", "viability z-score with doxorubicin": -0.22, "viability z-score without drug": 0.34, "Outcome": "inactive"}
{"gene knocked down": "Cidea", "PubChem SID": "SID152287828", "combined z-score class": "no change with or without drug", "viability z-score with doxorubicin": -0.9, "viability z-score without drug": -0.51, "Outcome": "inactive"}

Active calls, among the entries above:
{"gene knocked down": "Pphln1 (periphilin 1)", "PubChem SID": "SID152334309", "combined z-score class": "low cell count with doxorubicin only", "viability z-score with doxorubicin": -2.36, "viability z-score without drug": 0.34, "Outcome": "active"}
